From paper doi:10.1101/2023.03.05.531181 come the findings set out here.

Sequences of proteins named here, by UniProt entry; tags and fusion partners are left off. A change or cut given only in a name is not applied to a line headed by its entry.
UniProt P67775: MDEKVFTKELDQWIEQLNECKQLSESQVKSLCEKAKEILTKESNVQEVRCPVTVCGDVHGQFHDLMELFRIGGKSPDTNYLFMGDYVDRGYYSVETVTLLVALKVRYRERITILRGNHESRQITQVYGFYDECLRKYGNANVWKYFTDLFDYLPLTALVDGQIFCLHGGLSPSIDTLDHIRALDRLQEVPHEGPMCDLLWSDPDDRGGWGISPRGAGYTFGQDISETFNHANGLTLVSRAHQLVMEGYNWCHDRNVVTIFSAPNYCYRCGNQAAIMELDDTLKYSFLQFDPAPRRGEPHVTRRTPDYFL
UniProt P31749: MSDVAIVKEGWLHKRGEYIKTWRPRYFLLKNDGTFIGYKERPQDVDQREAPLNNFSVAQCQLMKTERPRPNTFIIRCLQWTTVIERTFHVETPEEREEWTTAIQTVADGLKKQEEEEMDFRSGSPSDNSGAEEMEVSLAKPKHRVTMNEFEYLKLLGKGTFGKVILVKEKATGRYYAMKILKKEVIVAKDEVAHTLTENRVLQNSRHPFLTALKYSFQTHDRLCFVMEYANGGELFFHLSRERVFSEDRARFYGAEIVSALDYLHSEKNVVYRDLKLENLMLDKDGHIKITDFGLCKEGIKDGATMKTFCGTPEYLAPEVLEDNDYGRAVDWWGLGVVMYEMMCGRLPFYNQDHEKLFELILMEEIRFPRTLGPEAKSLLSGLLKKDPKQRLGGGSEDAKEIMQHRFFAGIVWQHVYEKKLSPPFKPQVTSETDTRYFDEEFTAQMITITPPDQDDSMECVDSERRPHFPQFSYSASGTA

One assay addresses Flag-PP2A-C (UniProt P67775). As to the kind of experiment: co-IP.
Another assay deals with T1, V5-FBP1 (human) (UniProt P09467).
T1 sequence: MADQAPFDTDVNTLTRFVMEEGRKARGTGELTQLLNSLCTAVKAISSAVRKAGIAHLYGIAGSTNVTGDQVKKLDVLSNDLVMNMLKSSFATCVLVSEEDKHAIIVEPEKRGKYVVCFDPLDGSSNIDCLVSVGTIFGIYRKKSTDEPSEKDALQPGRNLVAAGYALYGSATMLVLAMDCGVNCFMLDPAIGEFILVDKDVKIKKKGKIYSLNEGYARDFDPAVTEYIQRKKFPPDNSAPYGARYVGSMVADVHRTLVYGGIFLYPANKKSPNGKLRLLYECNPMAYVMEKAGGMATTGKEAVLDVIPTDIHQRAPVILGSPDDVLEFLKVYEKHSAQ
As to the kind of experiment: co-IP.

The target of a further assay is T2, V5-FBP1^E98A (human) (UniProt P09467).
T2 sequence: T1 sequence with E98A
As to the kind of experiment: co-IP.

Another assay addresses T3, V5-FBP1^L329P (human) (UniProt P09467).
T3 sequence: T1 sequence with L329P
As to the kind of experiment: co-IP.

A further assay has as its target T4, His-FBP1 (UniProt P09467).
T4 sequence: T1 sequence
As to the kind of experiment: pull-down.

In another assay the target is T5, His-ALDOB (UniProt P05062).
T5 sequence: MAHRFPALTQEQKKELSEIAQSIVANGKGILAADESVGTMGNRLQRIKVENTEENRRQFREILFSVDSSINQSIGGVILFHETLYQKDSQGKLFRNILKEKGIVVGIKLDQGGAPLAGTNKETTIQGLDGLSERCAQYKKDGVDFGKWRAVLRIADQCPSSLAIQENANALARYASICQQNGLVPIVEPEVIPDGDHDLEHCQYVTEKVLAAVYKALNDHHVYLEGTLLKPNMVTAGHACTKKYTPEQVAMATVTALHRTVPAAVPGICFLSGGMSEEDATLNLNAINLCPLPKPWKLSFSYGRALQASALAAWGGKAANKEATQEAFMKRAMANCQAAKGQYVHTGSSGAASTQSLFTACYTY
As to the kind of experiment: pull-down.

The target of assay [1] is AKT (mouse liver) (mouse (endogenous in liver)). As to the kind of experiment: proximity ligation.
The target is the same in assay [2]. As to the kind of experiment: co-IP.
Assay [3] shares this target. As to the kind of experiment: co-IP. The source holds these as a separate data set.
The target is the same in assay [4]. As to the kind of experiment: proximity ligation. This is another data set of the same source.
For assay [5] the target is unchanged. As to the kind of experiment: co-IP. The source holds these as a separate data set.
Assay [6] has as its target AKT (Huh7 cells) (human (endogenous in Huh7)). As to the kind of experiment: co-IP.
Another assay has as its target GST-PP2A-C (UniProt P67775). As to the kind of experiment: pull-down.

Changes are numbered by the printed parent chain. In names and notes the source's numbering stands. These are yes or no findings as the source states them, for the method shown. For part of these data: Binding can be weak; no strength is given. For part of these data: Sequences can lack the tags named with a protein. For part of these data: Binding seen in cells or lysates may run through a third protein.

In the case of “AKT1 (from UniProt P31749 1-480) (enzyme)”, the binding entry with Flag-PP2A-C was “binds”.
“AKT (Huh7 cells) (human (endogenous in Huh7)) (enzyme)”: the figures for the binding result with V5-FBP1 (human), in the assay with V5-FBP1^E98A (human) and with V5-FBP1^L329P (human) were “binds”, “binds” and “no binding”, respectively.
With “GST-PP2A-C (from UniProt P67775) (enzyme)”, the binding result in the assay with His-FBP1 was “binds”.
As to His-AKT (enzyme), the binding entry in the assay with His-ALDOB was “binds”; in the assay with His-FBP1, “binds weakly”.
Consider PP2A-C (from UniProt P67775) (enzyme), for which the binding entry with V5-FBP1 (human) and with V5-FBP1^E98A (human) was “binds” throughout.

B1: FBP1 (mouse liver) (enzyme, UniProt Q9QXD6 1-338)
chain: MANHAPFETDISTLTRFVMEQGRKAQGTGELTQLLNSLCTAIKAISSAVRQAGIAQLYGIAGSTNVTGDQVKKLDILSNDLVINMLKSSYATCVLVSEENTNAIIIEPEKRGKYVVCFDPLDGSSNIDCLVSIGTIFGIYRKKSTDEPSEKDALQPGRDLVAAGYALYGSATMLVLAMDCGVNCFMLDPSIGEFIMVDRDVKMKKKGNIYSLNEGYAKDFDPAINEYLQRKKFPPDGSAPYGARYVGSMVADIHRTLVYGGIFLYPANKKSPSGKLRLLYECNPIAYVMEKAGGLATTGDKDILDIVPTEIHQKAPVVMGSSEDVQEFLEIYRKHKAK
In the case of B1, the binding entry in [1], in assay [2], in [3], in assay [4] and in assay [5] was “binds” in each case.

B2: HA/mFbp1^E98A (enzyme, UniProt Q9QXD6 1-338)
chain: B1 chain with E98A
For B2, the binding result in [3] is on record as “binds”.

B3: HA-FBP1 (enzyme, UniProt Q9QXD6 1-338)
chain: B1 chain
B3: in assay [3], the binding result is on record as “binds”.

B4: ALDOB (mouse liver) (enzyme, UniProt Q91Y97 1-364)
chain: MAHRFPALTPEQKKELSEIAQRIVANGKGILAADESVGTMGNRLQRIKVENTEENRRQFRELLFSVDNSISQSIGGVILFHETLYQKDSQGNLFRNVLKEKGIVVGIKLDQGGAPLAGTNKETTIQGLDGLSERCAQYKKDGVDFGKWRAVLRIADQCPSSLAIQENANALARYASICQQNGLVPIVEPEVLPDGDHDLEHCQYVSEKVLAAVYKALNDHHVYLEGTLLKPNMVTAGHACTKKYTPEQVAMATVTALHRTVPAAVPGICFLSGGMSEEDATLNLNAINRCPLPRPWKLSFSYGRALQASALAAWGGKAANKKATQEAFMKRAMANCQAAQGQYVHTGSSGAAATQSLFTASYTY
B4: the binding result in assay [2], in assay [3] and in [4] was “binds” in each case.

B5: ALDOB (Huh7 cells) (enzyme, UniProt P05062 1-364)
chain: T5 sequence
Regarding B5, the binding result in assay [6] is on record as “binds”.

B6: His-ALDOB (enzyme, UniProt P05062 1-364)
chain: T5 sequence
Consider B6, for which, in the assay with GST-PP2A-C, the binding result is “binds”.
